In patent US20110086042A1:

Target: α-tubulin
Test: co-localisation in rod-like structures of cells that overexpress full-length centrobin

B1: centrobin α (full-length, 903 amino acids) (protein)
chain: MATSADSPSSPLGAEDLLSDSSEPPGLNQVSSEVTSQLYASLRLSRQAEATARAQLYLPSTSPPHEGLDGFAQELSRSLSVGLEKNLKKKDGSKHIFEMESVRGQLQTMLQTSRDTAYRDPLIPGAGSERREEDSFDSDSTATLLNTRPLQDLSPSSSAQALEELFPRYTSLRPGPPLNPPDFQGLRDALDSEHTRRKHCERHIQSLQTRVLELQQQLAVAVAADRKKDTMIEQLDKTLARVVEGWNRHEAERTEVLRGLQEEHQAAELTRSKQQETVTRLEQSLSEAMEALNREQESARLQQRERETLEEERQALTLRLEAEQQRCCVLQEERDAARAGQLSEHRELETLRAALEEERQTWAQQEHQLKEHYQALQEESQAQLEREKEKSQREAQAAWETQHQLALVQSEVRRLEGELDTARRERDALQLEMSLVQARYESQRIQLESELAVQLEQRVTERLAQAQESSLRQAASLREHHRKQLQDLSGQHQQELASQLAQFKVEMAEREERQQQVAEDYELRLAREQARVCELQSGNQQLEEQRVELVERLQAMLQAHWDEANQLLSTTLPPPNPPAPPAGPSSPGPQEPEKEERRVWTMPPMAVALKPVLQQSREARDELPGAPPVLCSSSSDLSLLLGPSFQSQHSFQPLEPKPDLTSSTAGAFSALGAFHPDHRAERPFPEEDPGPDGEGLLKQGLPPAQLEGLKNFLHQLLETVPQNNENPSVDLLPPKSGPLTVPSWEEAPQVPRIPPPVHKTKVPLAMASSLFRVPEPPSSHSQGSGPSSGSPERGGDGLTFPRQLMEVSQLLRLYQARGWGALPAEDLLLYLKRLEHSGTDGRGDNVPRRNTDSRLGEIPRKEIPSQAVPRRLATAPKTEKPPARKKSGHPAPSSMRSRGGVWR
Question: B1 was tested. Which binding did it give?
Answer: Its binding is “binds”.

Results are given in words; binding and its absence hold for the method and conditions named. A result given as binding can be weak or reduced; the word gives no strength.
